Laboratory results as given in the supplement of paper PMC10077471.
Whole data set: some 1,900 compounds, median “excess over highest single agent (ExcessHSA) synergy score, 6x6 matrix” near -83, cut for the lowest 2% near -370. The list shows a part of the results.

Test system: NCI-H446
Assay: excess over highest single agent (ExcessHSA) synergy score, 6x6 matrix; higher = less synergy (more negative = stronger synergy)
Conditions: 72 h; CellTiter-Glo viability

SMILES | excess over highest single agent
CN(C)Cc1cccc(N=C(c2ccccc2)c2c(O)[nH]c3cc(C(=O)N(C)C)ccc23)c1 + Cc1sc2c(c1C)C(c1ccc(Cl)cc1)=N[C@@H](CC(=O)OC(C)(C)C)c1nnc(C)n1-2 [NCGC00250412-19] | 140
OC(c1cc(C(F)(F)F)nc2c(C(F)(F)F)cccc12)C1CCCCN1 (stereo unspecified) + Cc1sc2c(c1C)C(c1ccc(Cl)cc1)=N[C@@H](CC(=O)OC(C)(C)C)c1nnc(C)n1-2 [NCGC00250412-19] | -37.8
CC(C)C[C@@H](N)[C@H](O)C(=O)N[C@H](C(=O)N[C@H](C(=O)N[C@@H](CC(=O)O)C(=O)O)C(C)C)C(C)C + Cc1sc2c(c1C)C(c1ccc(Cl)cc1)=N[C@@H](CC(=O)OC(C)(C)C)c1nnc(C)n1-2 [NCGC00250412-19] | 306
Cc1coc2c1C(=O)C(=O)c1c-2ccc2c1CCCC2(C)C + Cc1sc2c(c1C)C(c1ccc(Cl)cc1)=N[C@@H](CC(=O)OC(C)(C)C)c1nnc(C)n1-2 [NCGC00250412-19] | 95.2
Cc1cn2cc(C(=O)N(C)CCO)cc(N[C@@H]3CCOc4cccc(C)c43)c2n1 + Cc1sc2c(c1C)C(c1ccc(Cl)cc1)=N[C@@H](CC(=O)OC(C)(C)C)c1nnc(C)n1-2 [NCGC00250412-19] | 64.1
COc1ccc(CCN2CCN(CCCc3ccccc3)CC2)cc1OC + Cc1sc2c(c1C)C(c1ccc(Cl)cc1)=N[C@@H](CC(=O)OC(C)(C)C)c1nnc(C)n1-2 [NCGC00250412-19] | -120
CNCCCC12CCC(c3ccccc31)c1ccccc12 + Cc1sc2c(c1C)C(c1ccc(Cl)cc1)=N[C@@H](CC(=O)OC(C)(C)C)c1nnc(C)n1-2 [NCGC00250412-19] | -71.9
CCc1c(O)cc(O)c(C(=O)c2ccc(OCCN3CCOCC3)c(OC)c2)c1CC(=O)N(CCOC)CCOC + Cc1sc2c(c1C)C(c1ccc(Cl)cc1)=N[C@@H](CC(=O)OC(C)(C)C)c1nnc(C)n1-2 [NCGC00250412-19] | -176
COc1cc2c(Nc3ccc(Cl)c(Cl)c3F)ncnc2cc1OC[C@@H]1C[C@@H]2CN(C)C[C@@H]2C1 + Cc1sc2c(c1C)C(c1ccc(Cl)cc1)=N[C@@H](CC(=O)OC(C)(C)C)c1nnc(C)n1-2 [NCGC00250412-19] | -234
CN(C)CCOC(c1ccccc1)c1ccccc1 + Cc1sc2c(c1C)C(c1ccc(Cl)cc1)=N[C@@H](CC(=O)OC(C)(C)C)c1nnc(C)n1-2 [NCGC00250412-19] | -287
CC(=O)[C@H]1CC[C@H]2[C@@H]3CCC4=CC(=O)CC[C@]4(C)[C@H]3CC[C@]12C + Cc1sc2c(c1C)C(c1ccc(Cl)cc1)=N[C@@H](CC(=O)OC(C)(C)C)c1nnc(C)n1-2 [NCGC00250412-19] | 174
Cn1cc(CNCC2CCN(c3ncc(C(=O)NO)cn3)CC2)c2ccccc21 + Cc1sc2c(c1C)C(c1ccc(Cl)cc1)=N[C@@H](CC(=O)OC(C)(C)C)c1nnc(C)n1-2 [NCGC00250412-19] | -155
OC(CN1CCC(Cc2ccc(F)cc2)CC1)c1ccc(Cl)cc1 (stereo unspecified) + Cc1sc2c(c1C)C(c1ccc(Cl)cc1)=N[C@@H](CC(=O)OC(C)(C)C)c1nnc(C)n1-2 [NCGC00250412-19] | -47.9
CC[C@@]1(O)C(=O)OCc2c1cc1n(c2=O)Cc2cc3ccccc3nc2-1 + Cc1sc2c(c1C)C(c1ccc(Cl)cc1)=N[C@@H](CC(=O)OC(C)(C)C)c1nnc(C)n1-2 [NCGC00250412-19] | -249
CO/C1=C\C(C)=C\[C@@H](C)[C@@H](O)[C@@H](C)C/C(C)=C/C=C/[C@H](OC)[C@@H]([C@@H](C)[C@@H](O)[C@H](C)[C@@]2(O)C[C@@H](O)[C@H](C)[C@@H](C(C)C)O2)OC1=O + Cc1sc2c(c1C)C(c1ccc(Cl)cc1)=N[C@@H](CC(=O)OC(C)(C)C)c1nnc(C)n1-2 [NCGC00250412-19] | -118
CC(NC(=O)Cc1cc(F)cc(F)c1)C(=O)NC(C(=O)OC(C)(C)C)c1ccccc1 (stereo unspecified) + Cc1sc2c(c1C)C(c1ccc(Cl)cc1)=N[C@@H](CC(=O)OC(C)(C)C)c1nnc(C)n1-2 [NCGC00250412-19] | -217
C[C@]12CC[C@@H]3c4ccc(O)cc4CC[C@H]3[C@@H]1CC[C@@H]2O + Cc1sc2c(c1C)C(c1ccc(Cl)cc1)=N[C@@H](CC(=O)OC(C)(C)C)c1nnc(C)n1-2 [NCGC00250412-19] | -54.9
CN(C)c1cc(NC(=O)CNC(C)(C)C)c(O)c2c1C[C@H]1C[C@H]3[C@H](N(C)C)C(=O)C(C(N)=O)=C(O)[C@@]3(O)C(=O)C1=C2O + Cc1sc2c(c1C)C(c1ccc(Cl)cc1)=N[C@@H](CC(=O)OC(C)(C)C)c1nnc(C)n1-2 [NCGC00250412-19] | -339

3 entries picked at random from those above:
SMILES | excess over highest single agent
CCc1c(O)cc(O)c(C(=O)c2ccc(OCCN3CCOCC3)c(OC)c2)c1CC(=O)N(CCOC)CCOC + Cc1sc2c(c1C)C(c1ccc(Cl)cc1)=N[C@@H](CC(=O)OC(C)(C)C)c1nnc(C)n1-2 [NCGC00250412-19] | -176
CN(C)CCOC(c1ccccc1)c1ccccc1 + Cc1sc2c(c1C)C(c1ccc(Cl)cc1)=N[C@@H](CC(=O)OC(C)(C)C)c1nnc(C)n1-2 [NCGC00250412-19] | -287
CC(NC(=O)Cc1cc(F)cc(F)c1)C(=O)NC(C(=O)OC(C)(C)C)c1ccccc1 (stereo unspecified) + Cc1sc2c(c1C)C(c1ccc(Cl)cc1)=N[C@@H](CC(=O)OC(C)(C)C)c1nnc(C)n1-2 [NCGC00250412-19] | -217

Continued.

SMILES | excess over highest single agent
CCNC(=O)Nc1ccc(-c2nc3c(c(N4CCOC[C@@H]4C)n2)CCN(C2COC2)C3)cc1 + Cc1sc2c(c1C)C(c1ccc(Cl)cc1)=N[C@@H](CC(=O)OC(C)(C)C)c1nnc(C)n1-2 [NCGC00250412-19] | -139
C[C@H](NC(=O)/C(C#N)=C/c1cccc(Br)n1)c1ccccc1 + Cc1sc2c(c1C)C(c1ccc(Cl)cc1)=N[C@@H](CC(=O)OC(C)(C)C)c1nnc(C)n1-2 [NCGC00250412-19] | -265
O=C(O)C(=O)Nc1cccc(-c2nnn[nH]2)c1 + Cc1sc2c(c1C)C(c1ccc(Cl)cc1)=N[C@@H](CC(=O)OC(C)(C)C)c1nnc(C)n1-2 [NCGC00250412-19] | 42.8
CC1CNc2c(cccc2S(=O)(=O)N[C@@H](CCCNC(=N)N)C(=O)N2CC[C@@H](C)C[C@@H]2C(=O)O)C1 (stereo partly specified) + Cc1sc2c(c1C)C(c1ccc(Cl)cc1)=N[C@@H](CC(=O)OC(C)(C)C)c1nnc(C)n1-2 [NCGC00250412-19] | -42
CO[C@H]1C[C@@H]2CC[C@@H](C)[C@@](O)(O2)C(=O)C(=O)N2CCCC[C@H]2C(=O)O[C@H]([C@H](C)C[C@@H]2CC[C@@H](OCCO)[C@H](OC)C2)CC(=O)[C@H](C)/C=C(\C)[C@@H](O)[C@@H](OC)C(=O)[C@H](C)C[C@H](C)/C=C/C=C/C=C/1C + Cc1sc2c(c1C)C(c1ccc(Cl)cc1)=N[C@@H](CC(=O)OC(C)(C)C)c1nnc(C)n1-2 [NCGC00250412-19] | -598
Fc1ccc(Cl)cc1-c1nc(Nc2ccncc2)c2nccnc2n1 + Cc1sc2c(c1C)C(c1ccc(Cl)cc1)=N[C@@H](CC(=O)OC(C)(C)C)c1nnc(C)n1-2 [NCGC00250412-19] | 77.7
Nc1ccn([C@@H]2O[C@H](CO)[C@@H](O)C2(F)F)c(=O)n1 + Cc1sc2c(c1C)C(c1ccc(Cl)cc1)=N[C@@H](CC(=O)OC(C)(C)C)c1nnc(C)n1-2 [NCGC00250412-19] | -379
COc1ccccc1N1CCN(CCN(C(=O)C2CCCCC2)c2ccccn2)CC1 + Cc1sc2c(c1C)C(c1ccc(Cl)cc1)=N[C@@H](CC(=O)OC(C)(C)C)c1nnc(C)n1-2 [NCGC00250412-19] | -78.4
CN1CCN(c2ccc([N+](=O)[O-])c3no[n+]([O-])c23)CC1 + Cc1sc2c(c1C)C(c1ccc(Cl)cc1)=N[C@@H](CC(=O)OC(C)(C)C)c1nnc(C)n1-2 [NCGC00250412-19] | 59.7
CC(=O)O[C@@]12CO[C@@H]1C[C@H](O)[C@@]1(C)C(=O)[C@H](O)C3=C(C)[C@@H](OC(=O)[C@H](O)[C@@H](NC(=O)OC(C)(C)C)c4ccccc4)C[C@@](O)([C@@H](OC(=O)c4ccccc4)[C@H]21)C3(C)C + Cc1sc2c(c1C)C(c1ccc(Cl)cc1)=N[C@@H](CC(=O)OC(C)(C)C)c1nnc(C)n1-2 [NCGC00250412-19] | -135
O=C(c1ccc(Nc2nccc(-c3cc4ccccc4s3)n2)cc1)N1CCC(N2CCCC2)CC1 + Cc1sc2c(c1C)C(c1ccc(Cl)cc1)=N[C@@H](CC(=O)OC(C)(C)C)c1nnc(C)n1-2 [NCGC00250412-19] | -181
Nc1ncnc2c1ncn2[C@@H]1O[C@H](CO)[C@@H](O)[C@H]1O + Cc1sc2c(c1C)C(c1ccc(Cl)cc1)=N[C@@H](CC(=O)OC(C)(C)C)c1nnc(C)n1-2 [NCGC00250412-19] | -247
C[C@@H](NC(=O)c1ncnc(N)c1Cl)c1ncc(C(=O)Nc2cc(C(F)(F)F)c(Cl)cn2)s1 + Cc1sc2c(c1C)C(c1ccc(Cl)cc1)=N[C@@H](CC(=O)OC(C)(C)C)c1nnc(C)n1-2 [NCGC00250412-19] | 8.97
O=C(O)C(O)Cc1ccc(O)c(O)c1 (stereo unspecified) + Cc1sc2c(c1C)C(c1ccc(Cl)cc1)=N[C@@H](CC(=O)OC(C)(C)C)c1nnc(C)n1-2 [NCGC00250412-19] | -9.7
CC1(C)CCC(C)(C)c2cc(NC(=O)c3ccc(C(=O)O)cc3)ccc21 + Cc1sc2c(c1C)C(c1ccc(Cl)cc1)=N[C@@H](CC(=O)OC(C)(C)C)c1nnc(C)n1-2 [NCGC00250412-19] | -132
N[C@@H](Cc1cc(I)c(Oc2cc(I)c(O)c(I)c2)c(I)c1)C(=O)O + Cc1sc2c(c1C)C(c1ccc(Cl)cc1)=N[C@@H](CC(=O)OC(C)(C)C)c1nnc(C)n1-2 [NCGC00250412-19] | -111
CCNC(=O)C[C@@H]1N=C(c2ccc(Cl)cc2)c2cc(OC)ccc2-n2c(C)nnc21 + Cc1sc2c(c1C)C(c1ccc(Cl)cc1)=N[C@@H](CC(=O)OC(C)(C)C)c1nnc(C)n1-2 [NCGC00250412-19] | 88.3
CCCCCCCCCC(=O)N[C@@H](Cc1c[nH]c2ccccc12)C(=O)N[C@@H](CC(N)=O)C(=O)N[C@@H](CC(=O)O)C(=O)N[C@@H]1C(=O)NCC(=O)N[C@@H](CCCN)C(=O)N[C@@H](CC(=O)O)C(=O)N[C@H](C)C(=O)N[C@@H](CC(=O)O)C(=O)NCC(=O)N[C@H](CO)C(=O)N[C@@H]([C@H](C)CC(=O)O)C(=O)N[C@@H](CC(=O)c2ccccc2N)C(=O)O[C@@H]1C + Cc1sc2c(c1C)C(c1ccc(Cl)cc1)=N[C@@H](CC(=O)OC(C)(C)C)c1nnc(C)n1-2 [NCGC00250412-19] | -103
